No constants are given. Whether binding was seen depends on the method and setting.
Experiments:
[1] = target: T1, DVL1 20-mer peptide, residues 650-669, printed on the SPOT array (spot A13) (human) (UniProt O14640); experiment: peptide or protein array; initial DVL1 SPOT array: 20-mer peptides on cellulose membrane, incubated with 0.4 µM His6-tagged Kelch domain protein in PBS for 1 h at 4°C, bound protein detected with HRP-conjugated anti-His antibody; both purified
T1 sequence (peptide): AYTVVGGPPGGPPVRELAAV

[2] = target: T2, FITC-labelled DVL1 peptide, residues 650-669 (human) (UniProt O14640); experiment: fluorescence polarisation; 40 nM FITC-labelled peptide, Kelch domain protein titrated; 50 mM HEPES pH 7.5, 300 mM NaCl, 0.5 mM TCEP, 0.01% Triton-X; hyperbolic fit, n = 3; both purified
T2 sequence (peptide, FITC on the N-terminus): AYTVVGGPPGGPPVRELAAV

binding [1]: no binding (tested: 0.4 µM)
binding [2]: no binding
B1: Human KLHL7 Kelch domain (residues 283-586) (domain or fragment, UniProt Q8IXQ5-1 283-586)
chain: GTRPRRKKHDYRIALFGGSQPQSCRYFNPKDYSWTDIRCPFEKRRDAACVFWDNVVYILGGSQLFPIKRMDCYNVVKDSWYSKLGPPTPRDSLAACAAEGKIYTSGGSEVGNSALYLFECYDTRTESWHTKPSMLTQRCSHGMVEANGLIYVCGGSLGNNVSGRVLNSCEVYDPATETWTELCPMIEARKNHGLVFVKDKIFAVGGQNGLGGLDNVEYYDIKLNEWKMVSPMPWKGVTVKCAAVGSIVYVLAGFQGVGRLGHILEYNTETDKWVANSKVRAFPVTSCLICVVDTCGANEETLET
